The data set concerns Caco-2 cells. Description: Transport tests for Lucifer yellow across Caco-2 monolayer in Transwell. The format is in vitro ADME. Conditions: Ex=427 nm, Em=536 nm, n=3. As to the method:
Drawing of a standard curve for Lucifer yellow: 0.005 μg/mL, 0.01 μg/mL, 0.025 μg/mL, 0.05 μg/mL, 0.1 μg/mL, and 0.25 μg/mL of standard solutions for Lucifer yellow were prepared, the fluorescence intensities (an excitation wavelength: 427 nm, and an emission wavelength: 536 nm) of the standard solutions for Lucifer yellow were measured with a fluorescence spectrophotometer, and linear regression was performed with the fluorescence intensity as an ordinate and the concentration ([…]) as an abscissa. A standard curve was drawn.
Transport tests for Lucifer yellow: Caco-2 cells grew to 21 days in a Transwell, and then a culture medium was sucked and discarded. A preheated HBSS was added to both an AP side and a BL side for cleaning twice and was sucked and discarded, and then a preheated HBSS was added to perform culture under the conditions of 37° C. and 5% CO2 for 20 min. […] Under the condition of Ex=427 nm and Em=536 nm, the fluorescence intensity was measured according to a standard curve and a transport formula. A concentration and permeability coefficient of a transport solution for the Lucifer yellow CH on the BL side were calculated. […]
(In general: Caco-2 monolayers are a common model of the intestinal barrier.)

The results in this text go back to patent US20240027428A1, “METHOD FOR BUILDING CO-CULTURE MODEL FOR CACO-2/RAW-264.7 CELLS INDUCED BY LIPOPOLYSACCHARIDES AND APPLICATION OF CO-CULTURE MODEL” (ZHEJIANG UNIVERSITY OF TECHNOLOGY, priority 2022, published 2024).

Where no unit stands, none is given here, and values compare only within one read-out.

With Lucifer yellow, the “fluorescence intensity on BL side” value by setting is: (60 min) 26.512 +/−1.502; (120 min) 27.035 +/−3.184.
